Legend:
Test in all cases: biochemical
[1] = molecular target: T1, Δ13 LeuBAT (Aquifex aeolicus, UniProt O67854, A261V/E290S/G24D/G408T/I106S/I262L/I359G/N21Y/P362G/S256G/T254S/T409G/Y265F)
[2] = molecular target: T1, Δ13 LeuBAT; remark: listed apart in the source
[3] = molecular target: wild-type LeuT (Aquifex aeolicus, UniProt O67854); settings: saturation binding of 3H-labeled drug, n=3, ±s.e.m

Question: Which results are given for CN[C@H]1CC[C@@H](c2ccc(Cl)c(Cl)c2)c2ccccc21 [sertraline]?
Answer: Kd [1]: 18 nM; Ki [2]: 14 ± 2 nM; Kd [3]: 308 ± 63 nM
